From PubChem BioAssay AID180 (DTP/NCI, 2004)
The list does not hold the whole screen: it is rich in T/C values a quarter to a half above the control, in often repeated tests (any T/C) and in doses without a T/C. Further doses and runs are listed elsewhere. T/C gives the treated animals as a percentage of the vehicle group. Schedule codes are those of the source, read here as Q, the interval in days (D) or hours (H), X, the number of doses. Some T/C values are followed by the survivors on the day toxicity was checked, most often the fifth; without a count, all were alive then. Some doses have a count of surviving animals in place of a T/C: the source files T/C as zero there, which appears to mark a toxic dose or a test without result, not a measured value. Survivors were counted at the toxicity check, usually on the fifth day, unless a day is given; later deaths do not show. Some doses were run more than once; the results are listed from low to high.

Tested on: BDF1 mice, Adenocarcinoma 755 s.c., tumor weight T/C
Assay: NCI In Vivo Anticancer Drug Screen. Data for tumor model Adenocarcinoma 755 (subcutaneous) in B6D2F1 (BDF1) mice
Settings: T/C endpoint: mean tumor weight, higher T/C = larger tumour; for T/C: evaluated on day 12
Summary of the method: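 Compound activity was tested in mice carrying transplanted tumors. Survival or tumor size was measured, and each value is the treated-group measurement divided by that of the vehicle-treated control group (T/C).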

[1] = dose: 44.0 mg/kg/injection, schedule: Q01DX011 (ip), vehicle: methylcellulose (MC)
[2] = dose: 240.0 mg/kg/injection, schedule: Q01DX011 (ip), vehicle: carboxymethylcellulose (CMC)
[3] = dose: 225.0 mg/kg/injection, schedule: Q01DX011 (ip), vehicle: methylcellulose (MC)
[4] = dose: 250.0 mg/kg/injection, schedule: Q01DX011 (ip), vehicle: methylcellulose (MC)

SMILES: Cn1c2c(sc1=O)CCC2
- T/C [1]: 139 % of control
- survivor count [1]: 1 of 10
- survivor count (dose: 88.0 mg/kg/injection, schedule: Q01DX011 (ip), vehicle: methylcellulose (MC)): 3 of 10
- survivor count (dose: 175.0 mg/kg/injection, schedule: Q01DX011 (ip), vehicle: methylcellulose (MC)): 1 of 10
- survivor count (dose: 350.0 mg/kg/injection, schedule: Q01DX011 (ip), vehicle: methylcellulose (MC)): 4 of 10 and 6 of 10

SMILES: Cc1cc(C)c(/C=N/Nc2nc3c(c(=O)n(C)c(=O)n3C)n2C)c(C)c1
- survivor count (dose: 120.0 mg/kg/injection, schedule: Q01DX011 (ip), vehicle: carboxymethylcellulose (CMC)): 6 of 10
- survivor count [2]: 3 of 10

SMILES: Nc1nc2ncc(CNc3ccc(C(=O)NC(CCC(=O)O)C(=O)O)cc3)nc2c(=O)[nH]1 (centres undefined)
- T/C (dose: 22.24 mg/kg/injection, schedule: Q01DX011 (ip), vehicle: carboxymethylcellulose (CMC)): 137 % of control
- survivor count (dose: 55.6 mg/kg/injection, schedule: Q01DX011 (ip), vehicle: carboxymethylcellulose (CMC)): 3 of 10
- survivor count (dose: 69.5 mg/kg/injection, schedule: Q01DX011 (ip), vehicle: carboxymethylcellulose (CMC)): 2 of 10 and 6 of 10
- survivor count (dose: 70.0 mg/kg/injection, schedule: Q01DX011 (ip), vehicle: carboxymethylcellulose (CMC)): 5 of 10

SMILES: c1ccc(CNc2ncnc3[nH]ncc23)cc1
- survivor count (dose: 32.0 mg/kg/injection, schedule: Q01DX011 (ip), vehicle: carboxymethylcellulose (CMC)): 3 of 10
- survivor count (dose: 62.5 mg/kg/injection, schedule: Q01DX011 (ip), vehicle: carboxymethylcellulose (CMC)): 0 of 10
- survivor count (dose: 125.0 mg/kg/injection, schedule: Q01DX011 (ip), vehicle: carboxymethylcellulose (CMC)): 0 of 10
- survivor count (dose: 250.0 mg/kg/injection, schedule: Q01DX011 (ip), vehicle: carboxymethylcellulose (CMC)): 0 of 10

SMILES: C1CN1P1(N2CC2)=NP(N2CC2)(N2CC2)=NP(N2CC2)(N2CC2)=NP(N2CC2)(N2CC2)=N1
- survivor count (dose: 24.0 mg/kg/injection, schedule: Q02DX006 (ip), vehicle: carboxymethylcellulose (CMC)): 3 of 10

SMILES: CN1CCC(OC(N)=O)CC1
- survivor count (dose: 750.0 mg/kg/injection, schedule: Q01DX011 (ip), vehicle: carboxymethylcellulose (CMC)): 4 of 10

SMILES: C[C@]12CCC(=O)C=C1CC[C@H]1[C@@H]3CC[C@](O)(C(=O)CF)[C@@]3(C)C[C@H](O)[C@@]12F
- survivor count (dose: 112.0 mg/kg/injection, schedule: Q01DX011 (sc), vehicle: steroid suspending solution): 5 of 10

SMILES: Nc1ncnc2nc(/N=N/SCCC(=O)O)[nH]c12
- survivor count (dose: 300.0 mg/kg/injection, schedule: Q01DX011 (ip), vehicle: saline): 4 of 10

SMILES: CCCCn1cnc2c(SSc3ncnc4c3ncn4CCCC)ncnc21
- survivor count (dose: 240.0 mg/kg/injection, schedule: Q01DX011 (ip), vehicle: other): 0 of 10

SMILES: CC[C@H](c1ccc(O)cc1)[C@@H](CC)c1ccc(O)cc1
- survivor count (dose: 220.0 mg/kg/injection, schedule: Q01DX011 (sc), vehicle: steroid suspending solution): 2 of 10

SMILES: O=CN(O)CC(=O)O
- survivor count (dose: 500.0 mg/kg/injection, schedule: Q01DX011 (ip), vehicle: carboxymethylcellulose (CMC)): 6 of 10

SMILES: OCCN1CCN(CC/C=C2/c3ccccc3Sc3ccc(Cl)cc32)CC1
- survivor count (dose: 10.0 mg/kg/injection, schedule: Q01DX011 (ip), vehicle: methylcellulose (MC)): 5 of 10
- survivor count (dose: 20.0 mg/kg/injection, schedule: Q01DX011 (ip), vehicle: methylcellulose (MC)): 0 of 10
- survivor count (dose: 25.0 mg/kg/injection, schedule: Q01DX011 (ip), vehicle: methylcellulose (MC)): 0 of 10

SMILES: CCC(=O)NC
- T/C (dose: 90.0 mg/kg/injection, schedule: Q01DX011 (ip), vehicle: saline): 133 % of control

SMILES: O=C1[O][Sb]23[O]C(=O)C([O]2)C(O)C(O)C2[O][Sb]4([O]C(=O)C([O]4)C(O)C(O)C1[O]3)[O]C2=O (centres undefined)
- survivor count (dose: 160.0 mg/kg/injection, schedule: Q01DX011 (ip), vehicle: methylcellulose (MC)): 3 of 10 and 6 of 10

SMILES: Cc1ccc(N2CCN(CCCN3CCN(c4ccccc4Cl)CC3)CC2)cc1
- survivor count (dose: 90.0 mg/kg/injection, schedule: Q01DX011 (ip), vehicle: other): 3 of 10
- survivor count (dose: 180.0 mg/kg/injection, schedule: Q01DX011 (ip), vehicle: carboxymethylcellulose (CMC)): 0 of 10
- survivor count (dose: 180.0 mg/kg/injection, schedule: Q01DX011 (ip), vehicle: methylcellulose (MC)): 4 of 10

SMILES: CCC1/C=C/C=C/CC(C)C(O)C(C)(O)C(=O)C(C)C(O)C(C)C(=O)C(C)C(O)C(C)/C=C/C(=O)OC2C(C)C(CC1)OC1(OC(CC(C)O)C(C)CC1=O)C2C (centres undefined) (tested in a mixture with another compound)
- survivor count (dose: 8.0 mg/kg/injection, schedule: Q01DX011 (ip), vehicle: saline): 1 of 10

SMILES: c1cc[nH]c1
- T/C (dose: 20.0 mg/kg/injection, schedule: Q01DX011 (ip), vehicle: carboxymethylcellulose (CMC)): 129 % of control [9 of 10 alive]

SMILES: CCCCN(C)N=Nc1ccc(OCC(=O)NN)cc1
- survivor count (dose: 75.0 mg/kg/injection, schedule: Q01DX011 (ip), vehicle: carboxymethylcellulose (CMC)): 3 of 10
- survivor count (dose: 100.0 mg/kg/injection, schedule: Q01DX011 (ip), vehicle: carboxymethylcellulose (CMC)): 0 of 10

SMILES: CC1CCCCN1/N=N/c1nc2c([nH]1)c(=O)n(C)c(=O)n2C (centres undefined)
- survivor count [3]: 2 of 10

SMILES: Nc1nc(Cl)cc(Nc2ccc(CCO)cc2)n1
- survivor count (dose: 31.0 mg/kg/injection, schedule: Q01DX011 (ip), vehicle: methylcellulose (MC)): 6 of 10
- survivor count [4]: 4 of 10

SMILES: Nc1ncnc2c1ncn2C1CCCC(CO)O1 (centres undefined)
- T/C (dose: 25.0 mg/kg/injection, schedule: Q01DX011 (ip), vehicle: saline): 126 % of control

SMILES: O=S(=O)(OCCCl)OCCCl
- survivor count (dose: 50.0 mg/kg/injection, schedule: Q01DX011 (ip), vehicle: olive oil, sesame oil, peanut oil): 4 of 10

SMILES: Cn1c(=O)c2[nH]c(N/N=C/c3ccc(F)cc3)nc2n(C)c1=O
- T/C [2]: 141 % of control

SMILES: O=C(CCBr)NCCCNC(=O)CCBr
- survivor count [3]: 6 of 10

SMILES: Nc1nc([S][Bi]([S]c2nc(N)nc3nc[nH]c23)[S]c2nc(N)nc3nc[nH]c23)c2[nH]cnc2n1
- survivor count (dose: 20.0 mg/kg/injection, schedule: Q01DX011 (ip), vehicle: saline): 1 of 10
- survivor count (dose: 40.0 mg/kg/injection, schedule: Q01DX011 (ip), vehicle: saline): 0 of 10

SMILES: C=CCC1(CCC)C(=O)NC(=O)NC1=O
- survivor count (dose: 70.0 mg/kg/injection, schedule: Q01DX011 (ip), vehicle: methylcellulose (MC)): 6 of 10
- survivor count (dose: 140.0 mg/kg/injection, schedule: Q01DX011 (ip), vehicle: methylcellulose (MC)): 3 of 10 and 5 of 10

SMILES: S=c1nc[nH]c2nc[nH]c12.[Cd]
- survivor count (dose: 1.5 mg/kg/injection, schedule: Q01DX011 (ip), vehicle: saline): 3 of 10
- survivor count (dose: 6.0 mg/kg/injection, schedule: Q01DX011 (ip), vehicle: saline): 2 of 10

SMILES: C/C(=N\NC(=O)c1ccncc1)c1ccc(F)cc1
- survivor count (dose: 30.0 mg/kg/injection, schedule: Q01DX011 (ip), vehicle: methylcellulose (MC)): 2 of 10
- survivor count (dose: 60.0 mg/kg/injection, schedule: Q01DX011 (ip), vehicle: methylcellulose (MC)): 4 of 10

SMILES: C=C(Br)CN(CC)CCO
- survivor count (dose: 100.0 mg/kg/injection, schedule: Q01DX011 (ip), vehicle: other): 5 of 10
- survivor count (dose: 200.0 mg/kg/injection, schedule: Q01DX011 (ip), vehicle: other): 0 of 10

SMILES: Nc1nnnc2nc[nH]c12
- survivor count (dose: 25.0 mg/kg/injection, schedule: Q01DX011 (ip), vehicle: carboxymethylcellulose (CMC)): 1 of 10

SMILES: Cc1cnc(SCc2ccc(Cl)cc2Cl)nc1Nc1ccc(Cl)c(Cl)c1
- survivor count (dose: 125.0 mg/kg/injection, schedule: Q01DX011 (ip), vehicle: methylcellulose (MC)): 6 of 10
- survivor count [4]: 5 of 10
